Record: PubChem BioAssay AID686938 (Drosophila RNAi Screening Center, 2013)
Aim: 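Looking for CRAC channel components and the factors controlling them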 (primary screen). Cell system: Drosophila S2R+ cells. Reagents: long dsRNA against Drosophila genes, about 0.25 µg dsRNA per well, roughly 10,000 cells. Timing: 5 days of knock-down before the calcium assay. Challenge: thapsigargin (SERCA pump blocker) to empty calcium stores; entry signal taken 4 min after adding it. Read-out: 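Per-well fluo-4 fluorescence in two replicates, unnormalised, measured in resting cells and 4 min after store depletion by the SERCA blocker thapsigargin; ratio of the two present in few wells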. Scale: calcium entry signal: higher = stronger calcium signal after store depletion; resting calcium signal: higher = higher resting calcium signal. Rule for the call: 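Called when the plate z-score of the entry-to-rest ratio, mean of duplicates, falls below −3; wells with low overall dye signal (Fmax z below −2) or more than five off-targets excluded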. Calls: active = strongly reduced calcium entry; inactive = no strong reduction.
The deposit covers about 23,000 reagents; shown is an unselected part of those with a known target gene and a result. Of all reagents, 75 (0.33%) were called active. 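Raw plate signals without normalisation; calls rest on plate z-scores that were not deposited; ratio present for only 364 wells.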 Reagent sequences are not shown. Not stated in the record: the dose of the treatment.

CG3342 [DRSC18304] → calcium entry signal, replicate 1 (fluorescence units) = 3.14e7; calcium entry signal, replicate 2 (fluorescence units) = 3.57e7; resting calcium signal, replicate 1 (fluorescence units) = 1.51e7; resting calcium signal, replicate 2 (fluorescence units) = 1.52e7; activity call = inactive
CG13458 [DRSC10005] → calcium entry signal, replicate 1 (fluorescence units) = 3.73e7; calcium entry signal, replicate 2 (fluorescence units) = 4.27e7; resting calcium signal, replicate 1 (fluorescence units) = 1.69e7; resting calcium signal, replicate 2 (fluorescence units) = 2.77e7; activity call = inactive
Acp24A4 (Accessory gland protein 24A4) [DRSC22352] → calcium entry signal, replicate 1 (fluorescence units) = 3.67e7; calcium entry signal, replicate 2 (fluorescence units) = 6.67e7; resting calcium signal, replicate 1 (fluorescence units) = 1.70e7; resting calcium signal, replicate 2 (fluorescence units) = 3.23e7; activity call = inactive
CG11672 [DRSC14344] → calcium entry signal, replicate 1 (fluorescence units) = 4.46e7; calcium entry signal, replicate 2 (fluorescence units) = 3.73e7; resting calcium signal, replicate 1 (fluorescence units) = 2.16e7; resting calcium signal, replicate 2 (fluorescence units) = 1.96e7; activity call = inactive
CG9890 [DRSC04590] → calcium entry signal, replicate 1 (fluorescence units) = 4.13e7; calcium entry signal, replicate 2 (fluorescence units) = 4.72e7; resting calcium signal, replicate 1 (fluorescence units) = 2.09e7; resting calcium signal, replicate 2 (fluorescence units) = 2.18e7; activity call = inactive
CG17258 [DRSC00495] → calcium entry signal, replicate 1 (fluorescence units) = 2.02e7; calcium entry signal, replicate 2 (fluorescence units) = 1.83e7; resting calcium signal, replicate 1 (fluorescence units) = 1.15e7; resting calcium signal, replicate 2 (fluorescence units) = 8.85e6; activity call = inactive
CG17258 [DRSC22709] → calcium entry signal, replicate 1 (fluorescence units) = 4.01e7; calcium entry signal, replicate 2 (fluorescence units) = 3.87e7; resting calcium signal, replicate 1 (fluorescence units) = 2.04e7; resting calcium signal, replicate 2 (fluorescence units) = 1.65e7; activity call = inactive
Snp (Snipper) [DRSC04524] → calcium entry signal, replicate 1 (fluorescence units) = 5.70e7; calcium entry signal, replicate 2 (fluorescence units) = 5.50e7; resting calcium signal, replicate 1 (fluorescence units) = 2.70e7; resting calcium signal, replicate 2 (fluorescence units) = 2.28e7; activity call = inactive
Snp (Snipper) [DRSC21538] → calcium entry signal, replicate 1 (fluorescence units) = 3.42e7; calcium entry signal, replicate 2 (fluorescence units) = 3.40e7; resting calcium signal, replicate 1 (fluorescence units) = 1.90e7; resting calcium signal, replicate 2 (fluorescence units) = 1.53e7; activity call = inactive
CG7131 [DRSC16203] → calcium entry signal, replicate 1 (fluorescence units) = 5.73e7; calcium entry signal, replicate 2 (fluorescence units) = 4.04e7; resting calcium signal, replicate 1 (fluorescence units) = 2.60e7; resting calcium signal, replicate 2 (fluorescence units) = 1.67e7; activity call = inactive
CG17283 [DRSC15219] → calcium entry signal, replicate 1 (fluorescence units) = 4.00e7; calcium entry signal, replicate 2 (fluorescence units) = 4.74e7; resting calcium signal, replicate 1 (fluorescence units) = 1.90e7; resting calcium signal, replicate 2 (fluorescence units) = 7.14e7; activity call = inactive
san (separation anxiety) [DRSC07695] → calcium entry signal, replicate 1 (fluorescence units) = 3.05e7; calcium entry signal, replicate 2 (fluorescence units) = 2.66e7; resting calcium signal, replicate 1 (fluorescence units) = 1.83e7; resting calcium signal, replicate 2 (fluorescence units) = 1.55e7; activity call = inactive

2 of these entries, set out differently:
Target gene	DRSC id	calcium entry signal, replicate 1 (fluorescence units)	calcium entry signal, replicate 2 (fluorescence units)	resting calcium signal, replicate 1 (fluorescence units)	resting calcium signal, replicate 2 (fluorescence units)	activity call
Snp (Snipper)	DRSC04524	5.70e7	5.50e7	2.70e7	2.28e7	inactive
Snp (Snipper)	DRSC21538	3.42e7	3.40e7	1.90e7	1.53e7	inactive
